According to US20020019374A1, “Salicylohydrazide derivatives, processes and intermediates for their preparation, compositions comprising them, and their use” (priority 2000, published 2002):
Some of these results come from one statement about several compounds together.

System: Botrytis cinerea
Assay: activity against Botrytis cinerea on capsicum leaves (protective spray test)
Format: in vivo
Details: 250 ppm formulation of the active ingredient; sprayed to runoff, inoculated next day, assessed after 5 days; untreated plants 90%

Q: With C/C(=N\NC(=O)c1cccc([N+](=O)[O-])c1O)c1ccccc1 [I-1, 3-nitrosalicylic (1-phenylethylidene)hydrazide] as the compound, how does the “disease level of the plants (extent of fungal infection on the leaves, visually in %)” value read?
A: not more than 15%
